In the supplement of paper PMC10849652:
Some of the results follow.

Amino acid sequences for entries named in this document (tags omitted). A change or cut given only in a name is not applied to a line headed by its entry.
UniProt Q9P2R6: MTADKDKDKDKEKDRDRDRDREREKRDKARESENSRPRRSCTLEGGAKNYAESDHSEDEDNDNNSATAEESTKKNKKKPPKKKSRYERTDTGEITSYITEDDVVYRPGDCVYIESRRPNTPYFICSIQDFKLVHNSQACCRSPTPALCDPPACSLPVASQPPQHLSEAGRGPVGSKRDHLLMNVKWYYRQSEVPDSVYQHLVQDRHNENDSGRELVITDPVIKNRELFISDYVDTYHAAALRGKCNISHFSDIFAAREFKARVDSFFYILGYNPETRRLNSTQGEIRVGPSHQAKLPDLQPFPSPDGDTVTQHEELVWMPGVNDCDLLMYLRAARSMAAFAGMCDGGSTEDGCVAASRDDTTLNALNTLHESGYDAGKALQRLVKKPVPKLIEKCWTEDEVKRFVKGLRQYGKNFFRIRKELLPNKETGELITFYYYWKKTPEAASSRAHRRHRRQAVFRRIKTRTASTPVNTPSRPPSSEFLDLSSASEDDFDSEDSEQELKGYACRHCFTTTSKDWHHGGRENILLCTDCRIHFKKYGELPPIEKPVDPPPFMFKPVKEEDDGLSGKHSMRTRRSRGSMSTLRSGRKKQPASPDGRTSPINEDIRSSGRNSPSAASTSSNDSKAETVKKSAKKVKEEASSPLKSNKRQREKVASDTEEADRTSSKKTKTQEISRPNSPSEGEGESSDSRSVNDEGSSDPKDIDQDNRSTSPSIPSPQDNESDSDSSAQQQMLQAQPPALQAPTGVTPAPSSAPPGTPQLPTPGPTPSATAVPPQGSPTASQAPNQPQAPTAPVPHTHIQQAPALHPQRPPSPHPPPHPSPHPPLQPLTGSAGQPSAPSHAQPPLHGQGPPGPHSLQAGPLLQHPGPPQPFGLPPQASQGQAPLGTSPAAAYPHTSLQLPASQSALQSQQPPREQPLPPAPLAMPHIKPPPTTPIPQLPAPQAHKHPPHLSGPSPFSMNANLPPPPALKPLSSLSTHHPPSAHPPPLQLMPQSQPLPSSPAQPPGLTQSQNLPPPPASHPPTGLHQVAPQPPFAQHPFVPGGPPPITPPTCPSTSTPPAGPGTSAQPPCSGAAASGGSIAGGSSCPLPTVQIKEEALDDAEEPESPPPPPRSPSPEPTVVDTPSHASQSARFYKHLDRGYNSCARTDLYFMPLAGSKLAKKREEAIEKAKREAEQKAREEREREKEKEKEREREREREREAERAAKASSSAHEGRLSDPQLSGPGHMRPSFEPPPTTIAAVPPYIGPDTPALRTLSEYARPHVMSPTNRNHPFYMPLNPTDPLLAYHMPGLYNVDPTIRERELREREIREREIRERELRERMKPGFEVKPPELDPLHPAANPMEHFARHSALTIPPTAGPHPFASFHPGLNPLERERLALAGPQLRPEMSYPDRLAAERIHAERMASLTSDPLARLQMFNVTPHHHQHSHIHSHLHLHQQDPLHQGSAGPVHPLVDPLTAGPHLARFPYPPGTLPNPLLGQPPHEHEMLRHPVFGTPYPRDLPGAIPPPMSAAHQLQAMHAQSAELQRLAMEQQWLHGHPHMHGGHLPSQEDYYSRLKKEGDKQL
UniProt Q6PCD5: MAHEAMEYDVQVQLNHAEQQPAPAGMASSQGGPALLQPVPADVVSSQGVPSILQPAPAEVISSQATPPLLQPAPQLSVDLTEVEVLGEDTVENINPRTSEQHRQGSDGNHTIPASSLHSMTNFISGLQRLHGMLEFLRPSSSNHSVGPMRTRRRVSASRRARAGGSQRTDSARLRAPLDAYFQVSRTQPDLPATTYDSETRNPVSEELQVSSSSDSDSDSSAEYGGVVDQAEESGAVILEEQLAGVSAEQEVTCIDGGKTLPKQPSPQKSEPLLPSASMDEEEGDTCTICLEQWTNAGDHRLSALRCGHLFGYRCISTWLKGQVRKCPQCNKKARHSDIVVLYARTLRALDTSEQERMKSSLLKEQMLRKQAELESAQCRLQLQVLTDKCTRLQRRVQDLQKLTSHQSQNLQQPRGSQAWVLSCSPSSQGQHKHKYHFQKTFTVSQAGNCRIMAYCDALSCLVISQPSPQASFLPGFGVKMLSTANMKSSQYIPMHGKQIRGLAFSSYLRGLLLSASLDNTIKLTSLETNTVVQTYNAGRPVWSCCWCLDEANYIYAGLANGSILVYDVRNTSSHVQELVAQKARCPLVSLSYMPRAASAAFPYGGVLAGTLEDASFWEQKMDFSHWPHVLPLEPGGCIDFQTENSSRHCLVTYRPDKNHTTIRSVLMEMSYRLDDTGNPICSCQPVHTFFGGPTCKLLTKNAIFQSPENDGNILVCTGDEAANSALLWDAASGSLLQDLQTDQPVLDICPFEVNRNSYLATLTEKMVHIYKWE
UniProt Q96T37: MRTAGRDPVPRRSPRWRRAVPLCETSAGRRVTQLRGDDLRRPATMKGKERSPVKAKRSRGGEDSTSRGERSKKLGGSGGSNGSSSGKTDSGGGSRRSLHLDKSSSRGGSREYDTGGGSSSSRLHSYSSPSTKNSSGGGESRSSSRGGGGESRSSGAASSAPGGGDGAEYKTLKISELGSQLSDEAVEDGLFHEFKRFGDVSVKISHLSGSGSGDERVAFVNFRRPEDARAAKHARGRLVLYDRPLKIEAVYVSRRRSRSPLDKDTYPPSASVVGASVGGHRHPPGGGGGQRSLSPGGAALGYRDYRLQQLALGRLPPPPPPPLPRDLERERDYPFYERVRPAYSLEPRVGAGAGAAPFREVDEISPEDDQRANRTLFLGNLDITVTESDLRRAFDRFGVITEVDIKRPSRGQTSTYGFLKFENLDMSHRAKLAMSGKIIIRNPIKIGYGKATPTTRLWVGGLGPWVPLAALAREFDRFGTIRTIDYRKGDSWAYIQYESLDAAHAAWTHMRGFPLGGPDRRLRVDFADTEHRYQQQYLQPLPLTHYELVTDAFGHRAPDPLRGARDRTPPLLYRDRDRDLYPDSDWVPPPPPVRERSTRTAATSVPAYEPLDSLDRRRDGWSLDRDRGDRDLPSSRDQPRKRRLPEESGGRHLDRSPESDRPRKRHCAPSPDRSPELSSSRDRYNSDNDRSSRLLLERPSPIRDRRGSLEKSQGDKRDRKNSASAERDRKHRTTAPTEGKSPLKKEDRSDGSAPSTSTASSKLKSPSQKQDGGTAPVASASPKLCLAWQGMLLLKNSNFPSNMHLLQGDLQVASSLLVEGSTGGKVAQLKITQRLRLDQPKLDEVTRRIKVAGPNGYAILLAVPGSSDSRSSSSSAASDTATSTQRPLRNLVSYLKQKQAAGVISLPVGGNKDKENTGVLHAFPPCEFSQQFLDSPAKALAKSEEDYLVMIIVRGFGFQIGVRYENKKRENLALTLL
UniProt Q9UBZ9: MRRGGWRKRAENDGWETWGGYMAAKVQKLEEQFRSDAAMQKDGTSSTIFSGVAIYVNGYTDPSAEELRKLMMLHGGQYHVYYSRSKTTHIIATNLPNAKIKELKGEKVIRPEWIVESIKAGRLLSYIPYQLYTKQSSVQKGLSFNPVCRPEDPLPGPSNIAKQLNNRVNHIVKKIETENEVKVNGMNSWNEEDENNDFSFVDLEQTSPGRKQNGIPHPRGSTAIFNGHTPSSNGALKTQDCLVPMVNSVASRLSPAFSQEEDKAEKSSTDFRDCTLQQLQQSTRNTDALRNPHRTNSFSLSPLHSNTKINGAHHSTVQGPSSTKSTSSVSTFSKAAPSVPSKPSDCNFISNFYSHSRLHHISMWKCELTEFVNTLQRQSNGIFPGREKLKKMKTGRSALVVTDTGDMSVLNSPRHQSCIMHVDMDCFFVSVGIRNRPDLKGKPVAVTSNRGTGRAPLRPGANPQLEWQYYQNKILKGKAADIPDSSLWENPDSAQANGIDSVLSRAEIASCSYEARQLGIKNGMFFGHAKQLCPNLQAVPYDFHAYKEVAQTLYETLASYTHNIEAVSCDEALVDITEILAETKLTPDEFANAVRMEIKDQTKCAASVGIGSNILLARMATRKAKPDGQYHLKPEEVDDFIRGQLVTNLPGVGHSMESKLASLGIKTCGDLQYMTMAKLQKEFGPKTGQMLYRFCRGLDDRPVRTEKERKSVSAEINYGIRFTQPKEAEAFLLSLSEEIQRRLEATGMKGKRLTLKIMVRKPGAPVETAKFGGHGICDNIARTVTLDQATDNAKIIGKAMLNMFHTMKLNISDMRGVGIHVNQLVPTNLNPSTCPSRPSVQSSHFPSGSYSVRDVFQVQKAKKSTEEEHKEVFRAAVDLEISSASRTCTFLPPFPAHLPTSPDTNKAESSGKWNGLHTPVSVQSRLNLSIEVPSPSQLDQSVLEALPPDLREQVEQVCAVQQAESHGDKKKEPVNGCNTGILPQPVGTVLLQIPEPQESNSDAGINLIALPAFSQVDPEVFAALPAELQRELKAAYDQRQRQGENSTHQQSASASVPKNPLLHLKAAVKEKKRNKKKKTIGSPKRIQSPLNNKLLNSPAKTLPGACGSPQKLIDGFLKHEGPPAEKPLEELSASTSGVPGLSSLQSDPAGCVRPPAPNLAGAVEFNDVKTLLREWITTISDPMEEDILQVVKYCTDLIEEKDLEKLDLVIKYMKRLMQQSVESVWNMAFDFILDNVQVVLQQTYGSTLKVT
UniProt Q96I51, whole entry, looked up: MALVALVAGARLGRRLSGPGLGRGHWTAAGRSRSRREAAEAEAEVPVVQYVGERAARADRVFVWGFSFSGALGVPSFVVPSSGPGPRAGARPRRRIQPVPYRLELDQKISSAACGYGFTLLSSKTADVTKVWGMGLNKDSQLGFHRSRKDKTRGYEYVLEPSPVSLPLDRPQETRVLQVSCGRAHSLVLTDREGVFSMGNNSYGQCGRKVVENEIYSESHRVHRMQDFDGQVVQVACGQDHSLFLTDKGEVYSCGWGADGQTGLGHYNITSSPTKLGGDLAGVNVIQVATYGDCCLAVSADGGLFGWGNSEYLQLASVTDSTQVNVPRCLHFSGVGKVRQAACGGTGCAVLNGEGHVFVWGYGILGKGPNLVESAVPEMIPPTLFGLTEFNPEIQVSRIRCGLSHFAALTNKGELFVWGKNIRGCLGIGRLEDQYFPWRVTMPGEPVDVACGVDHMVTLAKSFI
UniProt Q8N0T1: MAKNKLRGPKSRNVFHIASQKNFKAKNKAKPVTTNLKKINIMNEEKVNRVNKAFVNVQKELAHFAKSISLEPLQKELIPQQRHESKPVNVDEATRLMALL
UniProt Q96PM5: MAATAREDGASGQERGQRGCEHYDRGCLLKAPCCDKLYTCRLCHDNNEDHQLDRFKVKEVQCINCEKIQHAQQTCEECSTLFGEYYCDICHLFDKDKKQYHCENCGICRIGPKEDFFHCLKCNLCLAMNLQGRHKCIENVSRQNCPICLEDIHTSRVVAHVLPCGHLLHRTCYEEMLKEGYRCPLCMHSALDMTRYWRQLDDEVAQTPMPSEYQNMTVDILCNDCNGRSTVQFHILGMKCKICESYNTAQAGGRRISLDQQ
UniProt Q00765: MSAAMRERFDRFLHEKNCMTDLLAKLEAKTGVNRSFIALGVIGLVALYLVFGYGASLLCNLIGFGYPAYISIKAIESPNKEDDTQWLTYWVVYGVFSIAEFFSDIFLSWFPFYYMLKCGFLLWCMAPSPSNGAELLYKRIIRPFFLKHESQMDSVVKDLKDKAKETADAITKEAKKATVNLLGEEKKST
UniProt Q86VR2, whole entry, looked up: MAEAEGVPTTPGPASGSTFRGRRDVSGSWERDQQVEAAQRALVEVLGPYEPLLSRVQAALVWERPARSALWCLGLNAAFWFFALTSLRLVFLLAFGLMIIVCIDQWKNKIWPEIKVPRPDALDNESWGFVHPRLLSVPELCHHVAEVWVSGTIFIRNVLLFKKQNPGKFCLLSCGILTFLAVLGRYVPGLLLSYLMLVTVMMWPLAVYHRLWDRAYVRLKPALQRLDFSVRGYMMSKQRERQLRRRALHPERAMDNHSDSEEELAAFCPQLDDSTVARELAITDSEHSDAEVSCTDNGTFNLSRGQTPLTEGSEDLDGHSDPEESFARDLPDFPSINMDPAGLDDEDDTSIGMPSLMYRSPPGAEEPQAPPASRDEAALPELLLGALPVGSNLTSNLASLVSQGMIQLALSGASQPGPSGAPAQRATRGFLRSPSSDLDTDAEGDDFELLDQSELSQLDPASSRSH
UniProt Q96AA3: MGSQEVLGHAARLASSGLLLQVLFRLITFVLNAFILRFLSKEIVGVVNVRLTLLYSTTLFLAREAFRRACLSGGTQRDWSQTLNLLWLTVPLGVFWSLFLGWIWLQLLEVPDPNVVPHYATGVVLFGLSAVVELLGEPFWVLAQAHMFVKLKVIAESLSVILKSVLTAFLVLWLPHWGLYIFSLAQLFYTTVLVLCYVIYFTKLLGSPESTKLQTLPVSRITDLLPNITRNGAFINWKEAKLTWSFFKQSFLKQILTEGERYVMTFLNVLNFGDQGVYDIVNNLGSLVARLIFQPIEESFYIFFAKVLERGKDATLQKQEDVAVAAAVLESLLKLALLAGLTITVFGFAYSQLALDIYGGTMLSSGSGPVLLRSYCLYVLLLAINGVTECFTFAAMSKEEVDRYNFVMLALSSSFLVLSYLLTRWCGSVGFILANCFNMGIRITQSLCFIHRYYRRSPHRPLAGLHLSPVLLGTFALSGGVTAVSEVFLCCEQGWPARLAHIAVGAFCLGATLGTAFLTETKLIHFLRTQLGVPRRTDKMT

Legend:
Experiment in all cases: log2 fold change, soluble protein after heating vs DMSO (PISA); higher = thermal stabilisation; K562 lysate, 10 uM; active = over 0.2 and 3.5 SD of the protein, either way, in both replicates (recomputed)
[1] = compound: NCC(=O)Nc1ccc(-n2nc(C(F)(F)F)cc2-c2ccc3c(ccc4ccccc43)c2)cc1
Procedure, shortened: (§1)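 Log-two fold change in thermal stability relative to solvent controls is reported from duplicates. For each sample, crude K562 extract from dounce-homogenised pellets in PBS pH 7.4 with 1 mM MgCl2, at 1 mg/mL protein, was treated with 10 μM compound for 30 min. Aliquots heated for 3 min across 48°C-58°C were pooled, brought to 0.5% NP-40 at 4°C and cleared at 21,000xg for 90 min. The supernatant was quantified by TMTpro 16plex LC-MS/MS with channel sums equalised.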

[2] = compound: O=C(CCCCCCC(=O)Nc1ccccc1)NO [vorinostat]
Procedure, shortened: as §1

[3] = compound: O=C(O)c1ccc2c(c1)nc(Nc1cccc(Cl)c1)c1ccncc12 [silmitasertib]
Procedure, shortened: as §1

[4] = compound: O=C1NC(=O)C(c2cnc3ccccn23)=C1c1cn2c3c(cc(F)cc13)CN(C(=O)N1CCCCC1)CC2
Procedure, shortened: as §1

[5] = compound: c1cn2cc(-c3ccc4cn[nH]c4c3)nc(Nc3ccc(N4CCOCC4)cc3)c2n1 [entospletinib]
Procedure, shortened: as §1

Target | log2 fold change [1] | log2 fold change [2] | log2 fold change [3] | log2 fold change [4] | log2 fold change [5]
RFXANK (UniProt O14593) | inactive: -0.087 | inactive: -0.092 | inactive: 0.019 | inactive: 0.02 | inactive: -0.052
RCSD1 (UniProt Q6JBY9) | inactive: 0.023 | inactive: 0.062 | inactive: 0.019 | inactive: 0.012 | inactive: 0
RBBP7 isoform 2 (UniProt Q16576) | inactive: -0.043 | inactive: 0.03 | inactive: -0.012 | inactive: -0.068 | inactive: 0.024
RBM28 (UniProt Q9NW13) | inactive: 0.042 | inactive: 0.019 | inactive: 0.089 | inactive: 0.013 | inactive: 0.024
RERE (UniProt Q9P2R6) | inactive: 0.098 | inactive: -0.119 | inactive: -0.056 | inactive: -0.043 | inactive: -0.103
RGPD5 (UniProt Q99666) | inactive: -0.037 | inactive: -0.033 | inactive: -0.061 | inactive: 0.019 | inactive: -0.057
REL isoform 2 (UniProt Q04864) | inactive: -0.052 | active: -0.351 | inactive: 0.07 | inactive: -0.004 | inactive: 0.019
RBBP5 (UniProt Q15291) | inactive: 0.008 | inactive: 0.108 | inactive: 0.004 | inactive: -0.013 | inactive: -0.017
RDH13 (UniProt Q8NBN7) | inactive: -0.045 | inactive: 0.117 | inactive: 0.104 | inactive: -0.045 | inactive: 0.034
RCOR3 isoform 3 (UniProt Q9P2K3) | inactive: -0.044 | inactive: -0.206 | inactive: -0.002 | inactive: -0.01 | inactive: 0.034
RHEB (UniProt Q15382) | inactive: -0.042 | inactive: -0.089 | inactive: 0.058 | inactive: -0.031 | inactive: 0.004
REEP6 (UniProt Q96HR9) | inactive: -0.031 | inactive: 0.068 | inactive: -0.083 | inactive: -0.028 | inactive: -0.059
RBM12 (UniProt Q9NTZ6) | inactive: -0.01 | inactive: 0.02 | inactive: -0.012 | inactive: 0.014 | inactive: -0.024
RECQL5 (UniProt O94762) | inactive: -0.063 | active: -0.307 | inactive: -0.094 | inactive: 0.03 | inactive: 0.024
RCC2 (UniProt Q9P258) | inactive: 0.015 | inactive: -0.062 | inactive: 0.026 | inactive: -0.01 | inactive: 0.001
RCAN1 (UniProt P53805) | inactive: 0.082 | inactive: -0.197 | inactive: 0.02 | inactive: 0.02 | inactive: 0.031
RC3H1 (UniProt Q5TC82) | inactive: 0.078 | inactive: 0.006 | inactive: -0.038 | inactive: 0.043 | inactive: -0.111
RASA1 (UniProt P20936) | inactive: 0.014 | inactive: -0.092 | inactive: 0 | inactive: 0.005 | inactive: 0.011
RBM4 (UniProt Q9BWF3) | inactive: -0.04 | inactive: -0.172 | inactive: 0.035 | inactive: -0.097 | inactive: 0.001
RFC1 (UniProt P35251) | inactive: -0.038 | inactive: -0.174 | inactive: 0.105 | inactive: 0 | inactive: -0.014
RENBP (UniProt P51606) | inactive: -0.04 | inactive: 0.04 | inactive: -0.078 | inactive: -0.045 | inactive: 0
RFWD3 (UniProt Q6PCD5) | inactive: 0.089 | active: -0.444 | inactive: 0.061 | inactive: -0.027 | inactive: 0.043
RBM15 (UniProt Q96T37) | inactive: 0.045 | inactive: -0.015 | inactive: 0.038 | inactive: 0.042 | inactive: 0.048
RCC1 isoform 2 (UniProt P18754) | inactive: 0.009 | active: -0.381 | inactive: 0.034 | inactive: 0.051 | inactive: -0.014
RBM19 (UniProt Q9Y4C8) | inactive: -0.02 | inactive: 0.116 | inactive: 0.014 | inactive: 0.083 | inactive: -0.023
RBM14 (UniProt Q96PK6) | inactive: -0.037 | inactive: -0.019 | inactive: 0.033 | inactive: -0.047 | inactive: -0.081
REV1 (UniProt Q9UBZ9) | inactive: -0.177 | inactive: -0.02 | inactive: -0.04 | inactive: -0.108 | inactive: 0.046

Whole records as entered above. Order of values: log2 fold change [1] | log2 fold change [2] | log2 fold change [3] | log2 fold change [4] | log2 fold change [5]
RCC1 isoform 2 (UniProt P18754) in the list: inactive: 0.009 | active: -0.381 | inactive: 0.034 | inactive: 0.051 | inactive: -0.014
REV1 (UniProt Q9UBZ9) in the list: inactive: -0.177 | inactive: -0.02 | inactive: -0.04 | inactive: -0.108 | inactive: 0.046

Continued:

Target | log2 fold change [1] | log2 fold change [2] | log2 fold change [3] | log2 fold change [4] | log2 fold change [5]
RFX5 (UniProt P48382) | inactive: 0.057 | inactive: -0.171 | inactive: 0.034 | inactive: 0.005 | inactive: 0.08
RGS10 (UniProt O43665) | inactive: 0.023 | inactive: 0.151 | inactive: -0.058 | inactive: 0.004 | inactive: 0.007
RELA (UniProt Q04206) | inactive: -0.015 | inactive: -0.186 | inactive: -0.002 | inactive: -0.004 | inactive: -0.007
RBM23 isoform 2 (UniProt Q86U06) | inactive: 0.121 | inactive: -0.334 | inactive: -0.019 | inactive: -0.113 | inactive: 0.037
RBM8A (UniProt Q9Y5S9) | inactive: -0.113 | inactive: 0.103 | inactive: 0.042 | inactive: -0.046 | inactive: -0.019
RBM26 isoform 3 (UniProt Q5T8P6) | inactive: -0.014 | inactive: -0.13 | inactive: 0.005 | inactive: 0.013 | inactive: -0.056
RBM3 (UniProt P98179) | inactive: -0.044 | inactive: 0.208 | inactive: -0.164 | inactive: -0.042 | inactive: 0.032
RBM27 (UniProt Q9P2N5) | inactive: 0.075 | inactive: -0.126 | inactive: -0.066 | inactive: -0.054 | inactive: -0.024
RBBP4 (UniProt Q09028) | inactive: 0.018 | inactive: 0.104 | inactive: 0.016 | inactive: 0.008 | inactive: -0.007
RBBP6 (UniProt Q7Z6E9) | inactive: -0.016 | inactive: -0.088 | inactive: -0.039 | inactive: 0.02 | inactive: -0.011
RAVER1 (UniProt E9PAU2) | inactive: 0.085 | inactive: -0.021 | inactive: -0.026 | inactive: -0.016 | inactive: -0.023
RBM48 isoform 2 (UniProt Q5RL73) | inactive: -0.093 | inactive: -0.05 | inactive: -0.056 | inactive: -0.037 | inactive: -0.004
RBCK1 (UniProt Q9BYM8) | inactive: 0.006 | inactive: -0.04 | inactive: 0.048 | inactive: -0.045 | inactive: 0.02
RBM17 (UniProt Q96I25) | inactive: 0.011 | inactive: -0.185 | inactive: -0.019 | inactive: 0.011 | inactive: 0.009
RGP1 (UniProt Q92546) | inactive: -0.01 | inactive: 0.109 | inactive: -0.067 | inactive: 0.032 | inactive: 0.142
RCC1L (UniProt Q96I51) | inactive: 0.015 | inactive: 0.058 | inactive: 0.009 | inactive: -0.027 | inactive: 0.014
REEP4 (UniProt Q9H6H4) | inactive: -0.007 | inactive: 0.066 | inactive: -0.067 | inactive: 0.025 | inactive: 0.033
RBIS (UniProt Q8N0T1) | inactive: -0.027 | inactive: 0.117 | inactive: -0.003 | inactive: -0.031 | inactive: 0.014
RASA2 (UniProt Q15283) | inactive: -0.007 | active: -0.275 | inactive: 0.021 | inactive: -0.006 | inactive: 0.023
RBM5 (UniProt P52756) | inactive: 0.036 | active: -0.427 | inactive: 0.072 | inactive: -0.056 | inactive: 0.023
RCHY1 (UniProt Q96PM5) | inactive: -0.066 | inactive: -0.008 | inactive: 0.025 | inactive: -0.006 | inactive: -0.055
REEP5 (UniProt Q00765) | inactive: -0.034 | inactive: 0.001 | inactive: -0.025 | inactive: 0.02 | inactive: 0.015
RETREG3 (UniProt Q86VR2) | inactive: -0.015 | inactive: 0.039 | inactive: 0.014 | inactive: 0.023 | inactive: 0.004
REPIN1 isoform 4 (UniProt Q9BWE0) | inactive: 0.027 | inactive: 0.05 | inactive: -0.106 | inactive: -0.017 | inactive: -0.03
RFT1 (UniProt Q96AA3) | inactive: 0.001 | inactive: 0.083 | inactive: 0.071 | inactive: 0.002 | inactive: -0.011
RBM42 (UniProt Q9BTD8) | inactive: 0.19 | inactive: -0.04 | inactive: -0.031 | inactive: 0.018 | inactive: -0.058
